# Test results reported in PubChem BioAssay (NCATS).
# Inconclusive results, whose numbers are uncertain, are shown with a selection of clear calls. For some of these results: Potencies of inconclusive entries are doubtful fits and often do not repeat. The source made the active and inactive calls. Calls come from the whole dose curve; as a rule, active = well fitted curve in the direction sought with a large enough effect; inconclusive = small, poorly fitted or top-dose-only effect, or another doubt; inactive = no such curve, though single readings can be large; an effect the other way counts as inactive or inconclusive.
# Experiments:
# [1] = Quantitative High-Throughput drug screen in 47 multiple myeloma cell lines against the NCATS MIPE library collection: KMS20_JCRB cell viability assay (AID 1918973); details: CellTiter-Glo ATP, 48 h; viability (% of DMSO): at 45.8 µM (top of the series); note: potency is the fitted concentration of half-maximal effect; nearly all actives have a fitted effect of over 45% in size
# How it was run: (§1)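 Viability readout: CellTiter-Glo luminescence following 5 min room-temperature incubation with reagent. Prior exposure: 48 h, 37C, humidified 5% CO2, 500 cells per well.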
# [2] = Quantitative High-Throughput drug screen in 47 multiple myeloma cell lines against the NCATS MIPE library collection: KMS21BM_JCRB cell viability assay (AID 1918974); details: ATP luminescence, 48 h; viability: at 45.8 µM (top of the series) unless noted; note: potency is the fitted concentration of half-maximal effect
# How it was run: as §1
# [3] = Quantitative High-Throughput drug screen in 47 multiple myeloma cell lines against the NCATS MIPE library collection: KMS26_JCRB cell viability assay (AID 1918975); details: KMS26 myeloma cells viability, CellTiter-Glo ATP, 48 h; viability (% of DMSO): at 45.8 µM (top of the series); note: nearly all actives have a fitted effect of over 45% in size; note: potency is the fitted concentration of half-maximal effect
# How it was run: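 Luminescent ATP measurement with CellTiter-Glo gives viability, scaled between DMSO-only wells (100%) and media-only wells (0%). Cells, 500 per well, faced library compounds for 48 hours at 37C.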
# [4] = Quantitative High-Throughput drug screen in 47 multiple myeloma cell lines against the NCATS MIPE library collection: MOLP8_DSMZ cell viability assay (AID 1918977); details: MOLP8 myeloma viability, CellTiter-Glo ATP luminescence, 48 h; viability (% of control): at 45.8 µM (top of the series); note: nearly all actives have a fitted effect of over 45% in size; note: potency is the fitted concentration of half-maximal effect
# How it was run: (§2)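 Myeloma cells (500/well) treated with MIPE 4.0 compounds for 48 h at 37 °C, 5% CO2. Viability read as ATP via CellTiter-Glo luminescence after 5 min at RT; DMSO-only wells = 100%, media-only = 0% viability.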
# [5] = Quantitative High-Throughput drug screen in 47 multiple myeloma cell lines against the NCATS MIPE library collection: NCIH929_DSMZ cell viability assay (AID 1918978); note: potency is the fitted concentration of half-maximal effect; nearly all actives have a fitted effect of over 35% in size
# How it was run: as §2
# [6] = Quantitative High-Throughput drug screen in 47 multiple myeloma cell lines against the NCATS MIPE library collection: LP1_DSMZ cell viability assay (AID 1918982); details: LP1 myeloma viability, CellTiter-Glo ATP luminescence, 48 h; viability (% of control): at 45.8 µM (top of the series); note: potency is the fitted concentration of half-maximal effect; nearly all actives have a fitted effect of over 35% in size
# How it was run: as §2
# [7] = Quantitative High-Throughput drug screen in 47 multiple myeloma cell lines against the NCATS MIPE library collection: KMS28PE_JCRB cell viability assay (AID 1918983); note: nearly all actives have a fitted effect of over 35% in size; note: potency is the fitted concentration of half-maximal effect
# How it was run: as §2
# [8] = Quantitative High-Throughput drug screen in 47 multiple myeloma cell lines against the NCATS MIPE library collection: L363_DSMZ cell viability assay (AID 1918984); details: L363 myeloma viability, CellTiter-Glo ATP luminescence, 48 h; viability (% of control): at 45.8 µM (top of the series); note: nearly all actives have a fitted effect of over 40% in size; note: potency is the fitted concentration of half-maximal effect
# How it was run: as §2
# [9] = Quantitative High-Throughput drug screen in 47 multiple myeloma cell lines against the NCATS MIPE library collection: KMS34_JCRB cell viability assay (AID 1918985); details: KMS34 myeloma viability, CellTiter-Glo ATP luminescence, 48 h; viability, percent of control: at 45.8 µM (top of the series); note: nearly all actives have a fitted effect of over 40% in size; note: potency is the fitted concentration of half-maximal effect
# How it was run: as §2
# [10] = Quantitative High-Throughput drug screen in 47 multiple myeloma cell lines against the NCATS MIPE library collection: OCIMY7_PLB cell viability assay (AID 1918987); details: OCI-MY7 myeloma viability, CellTiter-Glo ATP, 48 h; viability (% of DMSO): at 45.8 µM (top of the series); note: nearly all actives have a fitted effect of over 65% in size; note: potency is the fitted concentration of half-maximal effect
# How it was run: as §2
# [11] = Quantitative High-Throughput drug screen in 47 multiple myeloma cell lines against the NCATS MIPE library collection: OCIMY5_PLB cell viability assay (AID 1918988); details: OCI-MY5 myeloma viability, ATP luminescence, 48 h; viability, % of control: at 45.8 µM (top of the series); note: potency is the fitted concentration of half-maximal effect; nearly all actives have a fitted effect of over 65% in size
# How it was run: as §2
# [12] = Quantitative High-Throughput drug screen in 47 multiple myeloma cell lines against the NCATS MIPE library collection: OPM1_PLB cell viability assay (AID 1918989); note: nearly all actives have a fitted effect of over 40% in size; note: potency is the fitted concentration of half-maximal effect
# How it was run: as §2
# [13] = Quantitative High-Throughput drug screen in 47 multiple myeloma cell lines against the NCATS MIPE library collection: XG6_PLB cell viability assay (AID 1919865); details: XG6 myeloma viability, CellTiter-Glo ATP luminescence, 48 h; viability (% of control): at 45.8 µM (top of the series); note: nearly all actives have a fitted effect of over 40% in size; note: potency is the fitted concentration of half-maximal effect
# How it was run: as §2
# [14] = Quantitative High-Throughput drug screen in 47 multiple myeloma cell lines against the NCATS MIPE library collection: XG1_PLB cell viability assay (AID 1919866); details: CellTiter-Glo ATP, 48 h; viability: at 45.8 µM (top of the series); note: nearly all actives have a fitted effect of over 35% in size; note: potency is the fitted concentration of half-maximal effect
# How it was run: as §2
# [15] = Quantitative High-Throughput drug screen in 47 multiple myeloma cell lines against the NCATS MIPE library collection: MM1S_ATCC cell viability assay (AID 1918980); note: potency is the fitted concentration of half-maximal effect; nearly all actives have a fitted effect of over 45% in size
# How it was run: as §2
# [16] = Quantitative High-Throughput drug screen in 47 multiple myeloma cell lines against the NCATS MIPE library collection: SKMM1_PLB cell viability assay (AID 1919863); details: SKMM1 myeloma viability, CellTiter-Glo ATP, 48 h; viability: hits give low values; note: nearly all actives have a fitted effect of over 35% in size; note: potency is the fitted concentration of half-maximal effect
# How it was run: as §2
# [17] = Quantitative High-Throughput drug screen in 47 multiple myeloma cell lines against the NCATS MIPE library collection: U266_ATCC cell viability assay (AID 1919864); details: U266 myeloma viability, CellTiter-Glo ATP luminescence, 48 h; viability (% of DMSO control): at 45.8 µM (top of the series); note: nearly all actives have a fitted effect of over 35% in size
# How it was run: as §2
# [18] = Quantitative High-Throughput drug screen in 47 multiple myeloma cell lines against the NCATS MIPE library collection: OCIMY1_PLB cell viability assay (AID 1918979); details: OCI-MY1 myeloma viability, CellTiter-Glo ATP, 48 h; viability: at 45.8 µM (top of the series) unless noted; note: nearly all actives have a fitted effect of over 35% in size; note: potency is the fitted concentration of half-maximal effect
# How it was run: as §2
# [19] = Quantitative High-Throughput drug screen in 47 multiple myeloma cell lines against the NCATS MIPE library collection: MM1R_ATCC cell viability assay (AID 1918981); note: nearly all actives have a fitted effect of over 35% in size
# How it was run: as §2
smiles,measurement,setting,value
CCC(=O)NCC[C@@H]1CCc2ccc3c(c21)CCO3,Potency,[1],"inconclusive: 14.8 µM [cytotoxic, partial curve, poor fit]"
same,Potency,[2],"inconclusive: 16.6 µM [rising, partial curve]"
same,Potency,[3],active: 6.62 µM
same,Potency,[4],"inconclusive: 14.8 µM [cytotoxic, partial curve, poor fit]"
same,Potency,[5],"inconclusive: 41.8 µM [cytotoxic, single point]"
same,Potency,[6],inconclusive: 0.001 µM [cytotoxic]
same,Potency,[7],"inconclusive: 3.32 µM [cytotoxic, partial curve, poor fit]"
same,Potency,[8],"inconclusive: 0.0066 µM [rising, full curve, poor fit]"
same,Potency,[9],"inconclusive: 0.0012 µM [cytotoxic, full curve, poor fit]"
same,Potency,[10],"inconclusive: 20.9 µM [cytotoxic, partial curve, poor fit]"
same,Potency,[11],"inconclusive: 9.35 µM [cytotoxic, partial curve, poor fit]"
same,Potency,[12],"inconclusive: 23.5 µM [cytotoxic, single point]"
same,Potency,[13],inactive
same,Potency,[14],inactive
O=C(O)CCCc1c[nH]c2ccccc12,Potency,[1],"inconclusive: 9.35 µM [cytotoxic, full curve, poor fit]"
same,Potency,[2],"inconclusive: 3.72 µM [rising, full curve, poor fit]"
same,Potency,[3],inactive
same,Potency,[4],inactive
same,Potency,[15],"inconclusive: 20.9 µM [cytotoxic, single point]"
same,Potency,[7],inactive
same,Potency,[8],inactive
same,Potency,[9],inactive
same,Potency,[10],"inconclusive: 3.72 µM [rising, full curve, poor fit]"
same,viability,[16],inactive: 113%
same,Potency,[17],inactive
same,Potency,[13],"inconclusive: 23.5 µM [cytotoxic, partial curve]"
CCc1cncnc1N1CCN(Cc2nc3ccc(C(F)(F)F)cc3[nH]2)CC1,Potency,[1],"inconclusive: 1.48 µM [cytotoxic, full curve, poor fit]"
same,Potency,[2],"inconclusive: 37.2 µM [rising, partial curve, poor fit]"
same,Potency,[3],active: 4.18 µM
same,Potency,[4],"inconclusive: 3.72 µM [cytotoxic, partial curve, poor fit]"
same,Potency,[5],"inconclusive: 16.6 µM [cytotoxic, partial curve]"
same,Potency,[18],inactive
same,Potency,[6],"inconclusive: 10.5 µM [cytotoxic, partial curve]"
same,Potency,[9],"inconclusive: 37.2 µM [cytotoxic, single point]"
same,Potency,[16],active: 18.7 µM
same,Potency,[13],"inconclusive: 16.6 µM [cytotoxic, partial curve]"
O=C(c1ccc(F)cc1)C1CCN(CCn2c(=O)[nH]c3ccccc3c2=O)CC1,Potency,[1],"inconclusive: 0.0047 µM [cytotoxic, full curve, poor fit]"
same,Potency,[2],"inconclusive: 33.2 µM [rising, single point]"
same,Potency,[3],inactive
same,Potency,[4],"inconclusive: 4.18 µM [cytotoxic, partial curve, poor fit]"
same,Potency,[15],"inconclusive: 4.18 µM [cytotoxic, full curve, poor fit]"
same,Potency,[19],inactive
same,Potency,[8],inactive
same,Potency,[9],inactive
same,Potency,[10],inactive
same,Potency,[12],inactive
same,Potency,[16],"inconclusive: 0.59 µM [cytotoxic, partial curve, poor fit]"
same,Potency,[13],inactive
same,Potency,[14],"inconclusive: 0.0105 µM [rising, full curve, poor fit]"
CC1(COc2ccc3c(c2)ncn3-c2ccc3cccc(N4CCC(N)CC4)c3n2)COC1,Potency,[1],"inconclusive: 0.0059 µM [cytotoxic, full curve]"
same,Potency,[2],"inconclusive: 0.0118 µM [cytotoxic, partial curve, poor fit]"
same,Potency,[3],active: 14.8 µM
same,Potency,[4],"inconclusive: 1.66 µM [cytotoxic, full curve]"
same,Potency,[5],"inconclusive: 0.0042 µM [cytotoxic, full curve]"
same,Potency,[18],active: 1.48 µM
same,Potency,[15],"inconclusive: 0.0235 µM [cytotoxic, partial curve, poor fit]"
same,Potency,[8],"inconclusive: 1.87 µM [cytotoxic, partial curve]"
same,Potency,[9],active: 1.05 µM
same,Potency,[11],"inconclusive: 0.0743 µM [cytotoxic, full curve, poor fit]"
same,Potency,[12],active: 0.0235 µM
same,Potency,[13],"inconclusive: 0.0042 µM [cytotoxic, partial curve, poor fit]"
same,Potency,[14],"inconclusive: 0.0047 µM [cytotoxic, full curve]"
O=C(NCCCCN1CCOCC1)c1cc2ccccc2o1,Potency,[1],"inconclusive: 33.2 µM [rising, single point]"
same,Potency,[2],"inconclusive: 0.0037 µM [rising, full curve, poor fit]"
same,Potency,[3],inactive
same,Potency,[4],"inconclusive: 26.4 µM [cytotoxic, single point]"
same,Potency,[18],inactive
same,Potency,[15],"inconclusive: 23.5 µM [cytotoxic, single point]"
same,viability (% of control),[8],inconclusive: 83.1% [cytotoxic]
same,Potency,[9],inactive
same,Potency,[10],"inconclusive: 10.5 µM [cytotoxic, single point]"
same,Potency,[11],"inconclusive: 9.35 µM [cytotoxic, partial curve, poor fit]"
same,viability,[16],inactive: 115%

# Retrieved one by one from the entries so far (five):
smiles,measurement,setting,value
O=C(NCCCCN1CCOCC1)c1cc2ccccc2o1,Potency,[3],inactive
CCc1cncnc1N1CCN(Cc2nc3ccc(C(F)(F)F)cc3[nH]2)CC1,Potency,[18],inactive
CC1(COc2ccc3c(c2)ncn3-c2ccc3cccc(N4CCC(N)CC4)c3n2)COC1,Potency,[14],"inconclusive: 0.0047 µM [cytotoxic, full curve]"
O=C(O)CCCc1c[nH]c2ccccc12,Potency,[7],inactive
CCc1cncnc1N1CCN(Cc2nc3ccc(C(F)(F)F)cc3[nH]2)CC1,Potency,[3],active: 4.18 µM
